Consider 38 targets from the supplement of paper PMC10849652.

By UniProt entry, the sequences of proteins in these tests, tags left out. Where a name states a change or a piece, a line headed by the entry shows the natural chain unless it says otherwise.
UniProt Q15526: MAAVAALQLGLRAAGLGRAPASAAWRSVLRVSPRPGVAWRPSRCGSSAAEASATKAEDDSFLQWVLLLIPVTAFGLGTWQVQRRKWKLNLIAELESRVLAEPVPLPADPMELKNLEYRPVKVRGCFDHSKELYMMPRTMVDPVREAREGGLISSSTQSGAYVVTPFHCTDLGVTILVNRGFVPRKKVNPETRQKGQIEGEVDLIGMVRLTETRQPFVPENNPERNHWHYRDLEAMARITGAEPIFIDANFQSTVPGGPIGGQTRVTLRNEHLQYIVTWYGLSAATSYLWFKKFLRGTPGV
UniProt Q12846: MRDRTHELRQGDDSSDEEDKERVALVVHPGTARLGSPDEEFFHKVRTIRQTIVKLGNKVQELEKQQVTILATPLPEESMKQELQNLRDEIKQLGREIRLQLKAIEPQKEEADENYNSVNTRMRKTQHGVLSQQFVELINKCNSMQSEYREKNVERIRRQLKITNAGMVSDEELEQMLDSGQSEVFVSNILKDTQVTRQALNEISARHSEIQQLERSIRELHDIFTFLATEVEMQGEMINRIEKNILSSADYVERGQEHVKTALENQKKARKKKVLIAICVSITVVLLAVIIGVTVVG
UniProt Q7RTN6: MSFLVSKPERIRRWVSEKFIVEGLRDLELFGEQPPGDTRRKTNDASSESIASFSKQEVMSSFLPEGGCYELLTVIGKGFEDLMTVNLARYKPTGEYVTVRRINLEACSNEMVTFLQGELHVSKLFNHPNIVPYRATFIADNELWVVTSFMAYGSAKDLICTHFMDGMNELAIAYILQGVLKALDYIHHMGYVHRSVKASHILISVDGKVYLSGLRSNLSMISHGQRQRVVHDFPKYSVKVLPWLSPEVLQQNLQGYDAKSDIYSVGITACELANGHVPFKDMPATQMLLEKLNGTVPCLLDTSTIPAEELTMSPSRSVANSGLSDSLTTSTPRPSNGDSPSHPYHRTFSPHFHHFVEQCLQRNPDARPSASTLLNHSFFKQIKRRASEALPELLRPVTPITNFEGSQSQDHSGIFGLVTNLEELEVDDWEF
UniProt Q15833: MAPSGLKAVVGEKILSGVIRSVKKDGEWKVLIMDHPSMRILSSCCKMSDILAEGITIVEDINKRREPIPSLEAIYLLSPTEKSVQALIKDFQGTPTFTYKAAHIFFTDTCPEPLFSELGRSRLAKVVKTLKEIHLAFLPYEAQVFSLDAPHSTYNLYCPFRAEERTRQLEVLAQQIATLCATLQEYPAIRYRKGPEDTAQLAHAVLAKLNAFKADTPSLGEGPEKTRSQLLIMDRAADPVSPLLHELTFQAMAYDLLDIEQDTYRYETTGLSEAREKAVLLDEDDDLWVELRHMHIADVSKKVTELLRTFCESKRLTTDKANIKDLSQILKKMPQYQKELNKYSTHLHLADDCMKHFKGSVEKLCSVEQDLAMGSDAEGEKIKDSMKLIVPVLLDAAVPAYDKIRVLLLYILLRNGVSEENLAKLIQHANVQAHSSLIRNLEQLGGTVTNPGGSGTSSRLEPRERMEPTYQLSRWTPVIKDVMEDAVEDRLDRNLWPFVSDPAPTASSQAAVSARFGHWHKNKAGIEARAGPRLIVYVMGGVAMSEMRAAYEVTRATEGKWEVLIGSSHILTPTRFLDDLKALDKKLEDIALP
UniProt Q9NVG8: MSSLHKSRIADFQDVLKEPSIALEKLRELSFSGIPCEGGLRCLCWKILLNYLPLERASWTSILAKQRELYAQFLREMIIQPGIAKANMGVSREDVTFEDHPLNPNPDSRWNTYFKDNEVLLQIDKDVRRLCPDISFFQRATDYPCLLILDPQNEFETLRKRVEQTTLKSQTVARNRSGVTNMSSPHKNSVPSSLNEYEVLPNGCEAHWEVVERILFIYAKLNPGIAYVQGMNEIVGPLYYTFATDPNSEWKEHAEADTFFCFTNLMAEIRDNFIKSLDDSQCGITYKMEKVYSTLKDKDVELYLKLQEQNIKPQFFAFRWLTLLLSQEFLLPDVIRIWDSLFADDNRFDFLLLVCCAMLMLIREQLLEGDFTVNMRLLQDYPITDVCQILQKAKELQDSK
UniProt O60506: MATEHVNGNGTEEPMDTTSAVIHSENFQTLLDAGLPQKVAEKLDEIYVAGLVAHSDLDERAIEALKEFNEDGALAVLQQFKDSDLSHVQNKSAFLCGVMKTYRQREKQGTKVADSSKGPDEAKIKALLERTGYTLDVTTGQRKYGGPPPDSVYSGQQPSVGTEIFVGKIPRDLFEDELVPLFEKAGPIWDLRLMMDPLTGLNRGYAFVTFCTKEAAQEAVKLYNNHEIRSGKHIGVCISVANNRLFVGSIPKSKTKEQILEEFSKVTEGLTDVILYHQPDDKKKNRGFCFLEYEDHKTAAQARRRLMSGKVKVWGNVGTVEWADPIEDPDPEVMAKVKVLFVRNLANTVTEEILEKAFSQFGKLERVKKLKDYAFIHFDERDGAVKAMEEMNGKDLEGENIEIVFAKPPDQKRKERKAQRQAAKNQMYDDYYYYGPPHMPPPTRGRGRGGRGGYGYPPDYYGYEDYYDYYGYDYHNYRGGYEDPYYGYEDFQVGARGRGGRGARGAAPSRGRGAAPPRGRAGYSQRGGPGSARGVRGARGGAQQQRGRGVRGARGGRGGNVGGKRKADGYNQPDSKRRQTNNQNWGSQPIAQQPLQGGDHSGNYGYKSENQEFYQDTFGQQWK
UniProt Q6ICL3: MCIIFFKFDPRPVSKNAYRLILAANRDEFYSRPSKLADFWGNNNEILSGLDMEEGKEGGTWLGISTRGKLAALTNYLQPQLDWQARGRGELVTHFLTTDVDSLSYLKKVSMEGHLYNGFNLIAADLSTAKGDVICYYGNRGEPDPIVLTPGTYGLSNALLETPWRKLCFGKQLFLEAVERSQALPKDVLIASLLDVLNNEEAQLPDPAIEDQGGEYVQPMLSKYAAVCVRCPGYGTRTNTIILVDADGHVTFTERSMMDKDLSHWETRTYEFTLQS
UniProt Q15633: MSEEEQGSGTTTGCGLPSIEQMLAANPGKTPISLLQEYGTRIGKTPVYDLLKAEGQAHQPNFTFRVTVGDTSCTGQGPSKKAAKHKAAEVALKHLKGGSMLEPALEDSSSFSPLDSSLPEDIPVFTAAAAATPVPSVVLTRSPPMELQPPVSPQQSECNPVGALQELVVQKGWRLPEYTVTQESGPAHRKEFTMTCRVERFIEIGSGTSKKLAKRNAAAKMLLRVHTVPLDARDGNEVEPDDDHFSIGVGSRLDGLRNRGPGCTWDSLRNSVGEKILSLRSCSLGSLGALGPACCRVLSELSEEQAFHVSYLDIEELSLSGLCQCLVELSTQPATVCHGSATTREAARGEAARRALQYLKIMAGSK
UniProt Q15527: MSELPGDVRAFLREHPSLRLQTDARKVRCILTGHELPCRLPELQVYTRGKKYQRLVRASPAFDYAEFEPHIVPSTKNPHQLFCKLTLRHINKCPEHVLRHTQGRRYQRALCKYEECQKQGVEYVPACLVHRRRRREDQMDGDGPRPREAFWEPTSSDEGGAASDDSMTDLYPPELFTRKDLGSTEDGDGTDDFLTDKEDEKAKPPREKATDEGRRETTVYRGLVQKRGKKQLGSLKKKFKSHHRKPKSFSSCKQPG
UniProt Q17R31: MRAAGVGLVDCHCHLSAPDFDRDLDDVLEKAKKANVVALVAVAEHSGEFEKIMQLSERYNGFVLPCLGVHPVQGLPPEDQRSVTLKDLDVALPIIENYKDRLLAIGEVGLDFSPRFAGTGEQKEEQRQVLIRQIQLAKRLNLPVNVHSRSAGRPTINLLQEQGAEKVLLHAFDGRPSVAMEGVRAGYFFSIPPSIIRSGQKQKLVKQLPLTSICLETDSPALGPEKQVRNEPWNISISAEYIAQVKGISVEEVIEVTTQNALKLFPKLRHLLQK
UniProt Q9NZ72: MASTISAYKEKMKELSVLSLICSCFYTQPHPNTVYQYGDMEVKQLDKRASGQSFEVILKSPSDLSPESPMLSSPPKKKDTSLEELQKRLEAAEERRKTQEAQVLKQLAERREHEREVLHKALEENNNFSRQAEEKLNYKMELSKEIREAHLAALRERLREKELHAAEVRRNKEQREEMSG
UniProt Q7Z7C8, whole entry, looked up: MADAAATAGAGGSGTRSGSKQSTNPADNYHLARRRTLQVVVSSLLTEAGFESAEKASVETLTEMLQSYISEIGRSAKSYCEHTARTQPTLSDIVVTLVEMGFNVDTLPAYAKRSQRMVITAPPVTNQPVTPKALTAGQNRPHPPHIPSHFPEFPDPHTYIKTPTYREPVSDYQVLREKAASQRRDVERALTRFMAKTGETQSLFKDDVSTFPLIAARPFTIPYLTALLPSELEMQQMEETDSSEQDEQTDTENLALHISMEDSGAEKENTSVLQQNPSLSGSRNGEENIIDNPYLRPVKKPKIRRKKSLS
UniProt A2RTX5: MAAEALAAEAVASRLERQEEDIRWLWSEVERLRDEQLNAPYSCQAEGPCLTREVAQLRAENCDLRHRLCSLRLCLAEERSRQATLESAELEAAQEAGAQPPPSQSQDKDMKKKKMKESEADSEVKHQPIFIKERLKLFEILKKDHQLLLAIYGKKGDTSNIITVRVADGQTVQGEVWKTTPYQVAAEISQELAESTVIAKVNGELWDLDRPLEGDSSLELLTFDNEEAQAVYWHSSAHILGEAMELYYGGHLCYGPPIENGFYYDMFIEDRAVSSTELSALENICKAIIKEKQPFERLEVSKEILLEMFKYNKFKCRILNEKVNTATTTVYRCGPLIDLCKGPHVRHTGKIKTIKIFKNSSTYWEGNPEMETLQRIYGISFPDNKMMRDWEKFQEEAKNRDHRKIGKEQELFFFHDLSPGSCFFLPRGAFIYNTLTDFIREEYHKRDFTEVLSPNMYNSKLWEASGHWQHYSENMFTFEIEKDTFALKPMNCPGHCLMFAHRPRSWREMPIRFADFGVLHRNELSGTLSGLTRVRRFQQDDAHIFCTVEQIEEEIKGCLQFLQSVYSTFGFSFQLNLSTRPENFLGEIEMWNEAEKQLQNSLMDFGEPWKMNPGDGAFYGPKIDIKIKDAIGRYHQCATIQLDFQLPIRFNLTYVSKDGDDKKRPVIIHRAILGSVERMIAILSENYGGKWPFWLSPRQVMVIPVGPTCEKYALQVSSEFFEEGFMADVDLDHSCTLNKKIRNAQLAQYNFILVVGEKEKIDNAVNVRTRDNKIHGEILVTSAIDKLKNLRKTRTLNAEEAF
UniProt O43815: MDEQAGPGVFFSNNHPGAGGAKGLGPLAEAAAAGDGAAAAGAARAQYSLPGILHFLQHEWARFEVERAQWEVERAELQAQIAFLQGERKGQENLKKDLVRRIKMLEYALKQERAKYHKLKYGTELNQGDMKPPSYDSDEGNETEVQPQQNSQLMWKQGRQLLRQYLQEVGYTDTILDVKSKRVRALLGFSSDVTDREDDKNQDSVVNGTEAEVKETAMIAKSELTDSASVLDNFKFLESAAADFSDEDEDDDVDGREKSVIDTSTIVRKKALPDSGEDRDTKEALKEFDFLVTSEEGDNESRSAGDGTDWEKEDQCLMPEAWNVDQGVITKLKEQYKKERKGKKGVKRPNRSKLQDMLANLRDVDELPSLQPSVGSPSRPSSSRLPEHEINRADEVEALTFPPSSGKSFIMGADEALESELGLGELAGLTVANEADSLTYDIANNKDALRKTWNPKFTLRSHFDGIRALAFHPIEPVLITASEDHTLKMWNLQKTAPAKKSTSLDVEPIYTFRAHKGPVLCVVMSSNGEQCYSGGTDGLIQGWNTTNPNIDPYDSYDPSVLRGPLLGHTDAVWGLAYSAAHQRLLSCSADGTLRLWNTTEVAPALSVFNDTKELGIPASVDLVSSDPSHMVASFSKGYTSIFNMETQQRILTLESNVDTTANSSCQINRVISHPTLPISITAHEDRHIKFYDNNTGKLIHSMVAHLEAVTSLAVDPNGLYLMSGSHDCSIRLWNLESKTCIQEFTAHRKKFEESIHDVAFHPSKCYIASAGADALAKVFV
UniProt Q86Y82: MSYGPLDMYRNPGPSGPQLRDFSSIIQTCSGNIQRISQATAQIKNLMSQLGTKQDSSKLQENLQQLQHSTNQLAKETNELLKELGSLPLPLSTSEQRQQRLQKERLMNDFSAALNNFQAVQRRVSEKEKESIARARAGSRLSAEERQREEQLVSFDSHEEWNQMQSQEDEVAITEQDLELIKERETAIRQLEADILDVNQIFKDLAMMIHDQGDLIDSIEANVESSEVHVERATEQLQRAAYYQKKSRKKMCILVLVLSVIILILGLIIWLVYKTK
UniProt P0DMM9: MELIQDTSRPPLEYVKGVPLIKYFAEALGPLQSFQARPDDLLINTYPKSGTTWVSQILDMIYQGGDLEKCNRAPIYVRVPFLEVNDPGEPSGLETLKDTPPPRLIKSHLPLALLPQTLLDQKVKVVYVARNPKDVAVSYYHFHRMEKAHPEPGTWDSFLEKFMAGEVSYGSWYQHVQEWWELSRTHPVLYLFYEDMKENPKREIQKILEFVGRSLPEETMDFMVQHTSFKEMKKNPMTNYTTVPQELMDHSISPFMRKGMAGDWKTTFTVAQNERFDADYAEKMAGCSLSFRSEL

The list shows a part of the results.

Compound in the first experiment: COc1cc2nc(-c3cc(F)ccc3O)nc(N[C@@H]3CNC[C@H]3C(C)(C)O)c2cc1OC
Briefly: log2 fold change, soluble protein after heating vs DMSO (PISA); higher = thermal stabilisation; K562 cells, 10 uM, 30 min; active = over 0.2 and 3.5 SD of the protein, either way, in both replicates (recomputed). In a few lines:
(§1)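 K562 cells (2×10^6 cells/mL) were treated with 10 μM compound for 30 min, and aliquots were heated for 3 min over 48°C-58°C. Pooled aliquots were extracted in PBS with 0.5% NP-40 at 4°C, and the supernatant after 21,000xg for 90 min was measured by TMTpro 16plex LC-MS/MS with channel sums equalised. Reported thermal stability, relative to control samples and from duplicates, is a log2 fold change.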
STX18 (UniProt Q9P2W9): the log2 fold change is inactive: 0.049.

SYMPK (UniProt Q92797): the log2 fold change was inactive: 0.036.

In the case of SURF1 (UniProt Q15526), the log2 fold change is inactive: -0.004.

For the target TANK (UniProt Q92844), the log2 fold change is inactive: 0.097.

Consider TAOK1 (UniProt Q7L7X3), for which the log2 fold change was inactive: -0.088.

In the case of STRIP1 (UniProt Q5VSL9), the log2 fold change is inactive: -0.055.

Take STX4 (UniProt Q12846): the log2 fold change is inactive: 0.154.

On to TBC1D10B (UniProt Q4KMP7), for which the log2 fold change is inactive: -0.088.

For the target STRADA (UniProt Q7RTN6), the log2 fold change is inactive: 0.043.

In the case of STX5 (UniProt Q13190), the log2 fold change is inactive: 0.117.

STXBP2 isoform 3 (UniProt Q15833): the log2 fold change is inactive: 0.045.

Regarding SULT1A1 (UniProt P50225), the log2 fold change was inactive: 0.046.

Take SUGP1 (UniProt Q8IWZ8): the log2 fold change is inactive: -0.007.

With TBC1D13 (UniProt Q9NVG8), the log2 fold change was inactive: 0.021.

Consider STOM (UniProt P27105), for which the log2 fold change is inactive: -0.045.

As to SYNCRIP (UniProt O60506), the log2 fold change is inactive: -0.036.

With TANGO2 isoform 4 (UniProt Q6ICL3), the log2 fold change was inactive: 0.034.

As for STX6 (UniProt O43752), the log2 fold change is inactive: 0.064.

As to TAOK3 (UniProt Q9H2K8), the log2 fold change was inactive: -0.049.

As for TARBP2 (UniProt Q15633), the log2 fold change was inactive: 0.034.

As for TACO1 (UniProt Q9BSH4), the log2 fold change is inactive: 0.135.

For SURF2 (UniProt Q15527), the log2 fold change is inactive: 0.023.

SYNCRIP isoform 3 (UniProt O60506): the log2 fold change was inactive: -0.013.

Turning to SUPT4H1 (UniProt P63272), the log2 fold change is inactive: 0.044.

Regarding TATDN3 isoform 3 (UniProt Q17R31), the log2 fold change is inactive: -0.002.

With TACC1 isoform 2 (UniProt O75410), the log2 fold change was inactive: -0.031.

As to TAX1BP1 (UniProt Q86VP1), the log2 fold change is inactive: -0.052.

Turning to STMN3 (UniProt Q9NZ72), the log2 fold change is inactive: -0.104.

For the target TAF8 isoform 2 (UniProt Q7Z7C8), the log2 fold change was inactive: -0.054.

With TARSL2 (UniProt A2RTX5), the log2 fold change was inactive: -0.007.

In the case of STRN (UniProt O43815), the log2 fold change is inactive: -0.003.

On to SUN1 isoform 9 (UniProt O94901), for which the log2 fold change was inactive: -0.14.

Regarding STK38 (UniProt Q15208), the log2 fold change was inactive: -0.006.

For the target STOML2 (UniProt Q9UJZ1), the log2 fold change is inactive: 0.022.

As for TAGLN2 isoform 2 (UniProt P37802), the log2 fold change was inactive: -0.004.

For STX12 (UniProt Q86Y82), the log2 fold change is inactive: 0.021.

Turning to SYNE2 isoform 2 (UniProt Q8WXH0), the log2 fold change was inactive: 0.34.

With SULT1A3 isoform 3 (UniProt P0DMM9), the log2 fold change is inactive: 0.083.

Compound in the next experiment: COc1cc2ncnc(Nc3ccc(F)c(Cl)c3)c2cc1OCCCN1CCOCC1 [gefitinib]
The description is as above. Put shortly:
as §1
Turning to STX18 (UniProt Q9P2W9), the log2 fold change is inactive: -0.005.

SYMPK (UniProt Q92797): the log2 fold change is inactive: 0.107.

Turning to SURF1 (UniProt Q15526), the log2 fold change is inactive: -0.055.

Regarding TANK (UniProt Q92844), the log2 fold change is inactive: -0.032.

In the case of TAOK1 (UniProt Q7L7X3), the log2 fold change is inactive: 0.033.

In the case of STRIP1 (UniProt Q5VSL9), the log2 fold change is inactive: -0.003.

As for STX4 (UniProt Q12846), the log2 fold change is inactive: 0.043.

In the case of TBC1D10B (UniProt Q4KMP7), the log2 fold change is inactive: 0.008.

Regarding STRADA (UniProt Q7RTN6), the log2 fold change is inactive: -0.036.

Consider STX5 (UniProt Q13190), for which the log2 fold change was inactive: 0.039.

On to STXBP2 isoform 3 (UniProt Q15833), for which the log2 fold change is inactive: 0.043.

SULT1A1 (UniProt P50225): the log2 fold change is inactive: 0.062.

As for SUGP1 (UniProt Q8IWZ8), the log2 fold change is inactive: 0.055.

Regarding TBC1D13 (UniProt Q9NVG8), the log2 fold change was inactive: -0.007.

In the case of STOM (UniProt P27105), the log2 fold change was inactive: -0.062.

As to SYNCRIP (UniProt O60506), the log2 fold change is inactive: -0.052.

As for TANGO2 isoform 4 (UniProt Q6ICL3), the log2 fold change was inactive: -0.026.

STX6 (UniProt O43752): the log2 fold change was inactive: -0.019.

Consider TAOK3 (UniProt Q9H2K8), for which the log2 fold change is inactive: 0.001.

As to TARBP2 (UniProt Q15633), the log2 fold change was inactive: 0.061.

For the target TACO1 (UniProt Q9BSH4), the log2 fold change is inactive: 0.012.

On to SURF2 (UniProt Q15527), for which the log2 fold change was inactive: 0.028.

On to SYNCRIP isoform 3 (UniProt O60506), for which the log2 fold change is inactive: 0.007.

Consider SUPT4H1 (UniProt P63272), for which the log2 fold change is inactive: -0.017.

Turning to TATDN3 isoform 3 (UniProt Q17R31), the log2 fold change is inactive: -0.024.

For TACC1 isoform 2 (UniProt O75410), the log2 fold change is inactive: -0.01.

As to TAX1BP1 (UniProt Q86VP1), the log2 fold change is inactive: 0.001.

Take STMN3 (UniProt Q9NZ72): the log2 fold change was inactive: 0.01.

Turning to TAF8 isoform 2 (UniProt Q7Z7C8), the log2 fold change is inactive: 0.038.

As for TARSL2 (UniProt A2RTX5), the log2 fold change was inactive: 0.009.

With STRN (UniProt O43815), the log2 fold change was inactive: 0.02.

As to SUN1 isoform 9 (UniProt O94901), the log2 fold change was inactive: -0.053.

For STK38 (UniProt Q15208), the log2 fold change was inactive: -0.038.

For STOML2 (UniProt Q9UJZ1), the log2 fold change was inactive: -0.007.

In the case of TAGLN2 isoform 2 (UniProt P37802), the log2 fold change was inactive: 0.009.

For the target STX12 (UniProt Q86Y82), the log2 fold change was inactive: 0.035.

SYNE2 isoform 2 (UniProt Q8WXH0): the log2 fold change is inactive: 0.078.

On to SULT1A3 isoform 3 (UniProt P0DMM9), for which the log2 fold change was inactive: -0.004.
